# Reference: PubChem BioAssay AID540256 (National Center for Advancing Translational Sciences (NCATS), 2011)
# The whole screen tested about 300,000 compounds, of which about 3,700 (1.2%) were called active. The inconclusive results got no clear call from the source; some entries with a clear call stand among them for comparison. Calls come from the whole dose curve; tested in HEK293 cells. Potencies beside an inconclusive call are fits to weak or partial responses and may not hold up.
# Experiment: qHTS for Inhibitors of binding or entry into cells for Lassa Virus; note: nearly all actives have a fitted effect of over 50% in size
# Settings: Lassa virus pseudotype entry inhibition, cell reporter; activity change, negative = inhibition: at 37.9 µM (top of the series) unless noted
# % is set by controls: 0 for no effect and ±100 for the full control effect; potency is the fitted concentration of half-maximal effect.
SMILES,Potency,"activity change, negative = inhibition"
CSc1sc(C)cc1/C=N/O,"inconclusive: 3.26 µM [inhibitor, partial curve, poor fit]",
C/C(=N\NC(=O)COc1ccc(C)cc1Br)c1cc([N+](=O)[O-])cs1,"inconclusive: 17.8 µM [inhibitor, partial curve, poor fit]",
COc1ccc(CCNc2nc3c(c(=O)n(C)c(=O)n3C)n2Cc2ccc(F)cc2)cc1OC,"inconclusive: 7.94 µM [inhibitor, partial curve, poor fit]",
CCc1ccccc1NC(=O)CC(c1ccc(F)cc1)N1Cc2ccccc2C1=O (stereo unspecified),"inconclusive: 11.2 µM [inhibitor, single point]",
CCOC(=O)c1cc2c(=O)n3ccccc3nc2n(Cc2ccco2)c1=NC(=O)c1cc(C)cc(C)c1,"inconclusive: 20 µM [inhibitor, single point]",
CCC(=O)Nc1sc2c(c1C(N)=O)CCC2,,inactive: -6.19%
Cn1c(SCC(=O)NC2CCCC2)nnc1-c1cccs1,,inactive: -2.7% [at 46.1 µM]
CCOc1ccc(S(=O)(=O)Nc2cccc(N(C)S(C)(=O)=O)c2)cc1,"inconclusive: 17.8 µM [inhibitor, single point]",
Cc1cccc(-c2cc3c(nn2)-c2ccccc2C3=O)c1,"inconclusive: 22.4 µM [inhibitor, single point]",
Cc1ccc(Cn2c(C)c(CNC3CCCCC3)c(C(=O)O)c2C)cc1,"inconclusive: 5.62 µM [activator, full curve]",
COc1cc(CN2CCc3nc(Nc4ccc5c(c4)OCCO5)ncc3C2)cc(OC)c1OC,"inconclusive: 35.5 µM [inhibitor, single point]",
COc1ccccc1C(=O)N/N=C/c1ccc2c(c1)OCO2,"inconclusive: 15.8 µM [inhibitor, single point]",
CCN(CCO)c1ncnc2c1sc1nc(CC(C)C)c3c(c12)CC(C)(C)OC3,,inactive: 1.87%
Cc1ccc(C)c(N(C)C(=O)C2CCN(c3ncnc4c3nc3n4CCCCC3)CC2)c1,"inconclusive: 11.2 µM [inhibitor, partial curve, poor fit]",
Cc1cc(C)n2nc(C(=O)Nc3nnc(C4CC4)s3)nc2n1,"inconclusive: 11.2 µM [activator, single point]",
CCCCCN(C(=O)COC(=O)CSc1ccc([N+](=O)[O-])cc1)c1c(N)n(CCCC)c(=O)[nH]c1=O,,inactive: -5.97%
CN(C)CCCN1C(=O)c2cccc3c([N+](=O)[O-])ccc(c23)C1=O,"inconclusive: 13 µM [inhibitor, partial curve, poor fit]",
CCOc1ccccc1CNC(=O)CCCc1cn(C)c2ccccc12,,inactive: -16.4%
CSc1nnc(-c2ccc(Br)s2)n1C,,inactive: 15.9%
CC(=O)Oc1ccc(-c2cccc(C(=O)OCC(=O)Nc3ccccc3Oc3ccccc3)c2)cc1,"inconclusive: 10 µM [inhibitor, partial curve, poor fit]",
Cc1ccc(S(=O)(=O)N2CCCc3cc(NC(=O)c4ccccc4Cl)ccc32)cc1,,inactive: -28.4% [at 46.1 µM]
Cc1ccc2nc(N3C(=O)C(O)=C(C(=O)c4cc5ccccc5o4)C3c3cccs3)sc2c1 (stereo unspecified),"inconclusive: 1.26 µM [inhibitor, single point]",
CSCc1ccc(C(=O)NCCSc2ccc(Br)cc2)cc1,,inactive: 17.5%
CCNC(=O)CN1C(=O)NC(Cc2ccccc2)(Cc2ccccc2)C1=O,,inactive: 2.47%

SMILES,Potency,"activity change, negative = inhibition"
N=c1c(C(=O)NCc2ccc3c(c2)OCO3)cc2c(=O)n3ccccc3nc2n1Cc1cccnc1,,inactive: 3.26%
COc1cccc(C2=NN(C(C)=O)C(c3cccs3)C2)c1 (stereo unspecified),,inactive: -2.44%
CC(C(=O)NCCN1C(=O)S/C(=C\c2cccnc2)C1=O)N1C(=O)c2ccccc2C1=O (stereo unspecified),,inactive: -0.757%
CC(=O)N[C@H](C(=O)O)C(C)(C)SN=O,,inactive: 1.01%
COc1ccc(Cl)cc1C(=O)NNC(=O)c1cccc(S(=O)(=O)N(C)C)c1,"inconclusive: 1.58 µM [activator, partial curve]",
CC(=O)c1nnn(-c2ccccc2C#N)c1C,"inconclusive: 3.98 µM [inhibitor, single point]",
COc1ccc(C2CC(C(F)(F)F)n3ncc(C(=O)Nc4c(C)n(C)n(-c5ccccc5)c4=O)c3N2)cc1 (stereo unspecified),,inactive: 0.845%
CCOC(=O)c1c(-c2ccc(OC)cc2)csc1NC(=O)C1CCCO1 (stereo unspecified),"inconclusive: 23.1 µM [inhibitor, single point]",
CCOC(=O)c1c(-c2ccc(F)cc2)csc1NC(=O)C1CC=CCC1C(=O)O (stereo unspecified),,inactive: 9.46% [at 46.1 µM]
O=C(NCc1n[nH]c(=S)n1-c1ccc(Cl)c(Cl)c1)c1cccs1,,inactive: 10.3%
O=C(Nc1ccc(C(F)(F)F)cc1)c1ccc(NC(=O)C2CCCO2)cc1 (stereo unspecified),"inconclusive: 7.08 µM [inhibitor, partial curve, poor fit]",
COCC(C)n1c(SCc2cc(=O)n3cc(C)ccc3n2)nc2ccccc2c1=O (stereo unspecified),active: 6.31 µM,
CN1CCN(/C=N/c2sc3c(c2C#N)CCCCC3)CC1,"inconclusive: 1.12 µM [activator, full curve]",
Cc1ccc(N(CC(=O)NCc2ccc3c(c2)OCO3)C(=O)CCC(=O)Nc2ccccn2)cc1,"inconclusive: 1.41 µM [inhibitor, full curve, poor fit]",
COCCNC(=O)CSc1nc2ccccc2nc1Cc1ccc(C)cc1,,inactive: 4.51% [at 46.1 µM]
CCc1cc(-c2onc(C)c2-c2cscn2)c(O)cc1OC,"inconclusive: 35.5 µM [inhibitor, single point]",
Cc1ccc(CNCC(O)(c2ccccc2)c2ccc(F)cc2)cc1 (stereo unspecified),,inactive: 14.9%
Cc1ccc(NC(=O)CC2CS(=O)(=O)CC2CC(=O)Nc2ccc(C)c(C)c2)cc1C (stereo unspecified),"inconclusive: 1.26 µM [activator, partial curve, poor fit]",
COc1cccc(CNC(=O)COc2ccc(C(=O)c3ccccc3)cc2)c1,"inconclusive: 22.4 µM [inhibitor, single point]",
CCn1c(COc2c(C)cccc2C)nnc1SCC(=O)N1CCN(c2ccccc2)CC1,"inconclusive: 11.2 µM [inhibitor, partial curve, poor fit]",
O=C(Nc1c(C(=O)c2ccc(F)cc2)oc2ccccc12)c1cc(-c2ccccc2)on1,,inactive: -0.393% [at 46.1 µM]
COc1ccc(NC(=O)N(Cc2nnc3n2CCCCC3)c2ccc(OC)c(Cl)c2)cc1,"inconclusive: 25.1 µM [activator, single point]",
Cc1ccc(-c2nc(N)sc2-c2ccccc2)cc1C,"inconclusive: 29.1 µM [inhibitor, single point]",
CC(=O)c1cccc(NC(=O)C2CCCN(S(=O)(=O)c3ccccc3)C2)c1 (stereo unspecified),"inconclusive: 3.66 µM [activator, partial curve, poor fit]",

SMILES,Potency,"activity change, negative = inhibition"
CCOC(=O)C1CCCN(CC(=O)Nc2c(C(=O)OC)[nH]c3ccccc23)C1 (stereo unspecified),"inconclusive: 25.9 µM [inhibitor, single point]",
Cn1cnc(S(=O)(=O)N2CCCC(C(=O)Nc3cccc(C#N)c3)C2)c1 (stereo unspecified),,inactive: 10.7% [at 46.1 µM]
O=C(Cc1ccccc1Cl)NC1(O)C(=O)c2ccccc2C1=O,"inconclusive: 35.5 µM [inhibitor, single point]",
Cc1cccc(NC(=S)NC(=O)Cc2ccccc2)c1C,"inconclusive: 10 µM [inhibitor, partial curve, poor fit]",
Cc1cc(C)cc(NC(=O)CN2CCC(NC(=O)c3cccc(F)c3)CC2)c1,,inactive: -2.84%
C/C(=N/N=C/c1ccc(N(C)C)cc1)c1ccccc1,"inconclusive: 7.94 µM [inhibitor, partial curve, poor fit]",
CC(C)C1N=C2c3ccccc3N=C(SCC(=O)NCc3ccc(F)cc3)N2C1=O (stereo unspecified),,inactive: -0.307% [at 46.1 µM]
C=CCN1C(=O)N(c2ccc(F)cc2)C(=O)C1CC(=O)Nc1ccc(Cl)cc1 (stereo unspecified),"inconclusive: 20 µM [inhibitor, single point]",
CCOC(=O)c1cc(-c2ccccc2)nc2nc(N(CC)CC)sc12,"inconclusive: 0.501 µM [inhibitor, full curve, poor fit]",
O=[N+]([O-])c1ccc2c(c1)C(N1CCOCC1)/C(=C/COc1ccc3ccccc3c1Br)O2 (stereo unspecified),"inconclusive: 22.4 µM [inhibitor, single point]",
CCN(CC)Cc1cc(NC2=NS(=O)(=O)c3ccccc32)ccc1OC(=O)C(C)C,,inactive: 7.14%
COc1cccc(/C=C/C(=O)c2ccc3c(c2)OCCO3)c1OC,"inconclusive: 35.5 µM [inhibitor, single point]",
CCC1(c2ccccc2)C(=O)NCNC1=O,inactive,
COc1ccc(C(C)=O)c(Oc2nc(CN3CCOCC3)nc3scc(-c4cccs4)c23)c1,,inactive: -7.73%
Cc1ccc(NC(=O)C2(c3ccccc3)CCCC2)nc1,,inactive: 5.1%
COCCN(C(=O)CSc1nnc(C)n1Cc1ccccc1)c1c(N)n(CC(C)C)c(=O)[nH]c1=O,"inconclusive: 35.5 µM [inhibitor, single point]",
Cc1c(C(=O)NCc2ccccc2Cl)cccc1-n1cnc2cccnc21,,inactive: 16.6% [at 46.1 µM]
COc1cc2c(cc1OC)C(C)N(C(C)=O)CC2 (stereo unspecified),,inactive: 13.3%
O=C(Nc1sc2c(c1C(=O)NC1CCCCC1)CCC2)c1ccco1,,inactive: -15.8%
COc1cccc(Cc2nc3ccccc3nc2SCC(=O)Nc2ccccc2F)c1,,inactive: 7.4% [at 46.1 µM]
O=C(Cn1c(=O)n(-c2ccccc2)c(=O)c2c3c(sc21)CCCC3)Nc1cccc(F)c1,,inactive: 4.02% [at 46.1 µM]
COc1ccc(COC(=O)NN=C2C[C@@H](O)[C@@H](O)[C@@H]3[C@H]4C(=O)N(c5ccc(F)cc5F)C(=O)[C@@H]4CC[C@H]23)cc1,active: 2.81 µM,
COC(=O)c1ccc2c(=O)n(-c3ccccc3)c(SCN3C(=O)c4ccccc4C3=O)nc2c1,"inconclusive: 23.1 µM [activator, partial curve, poor fit]",

# Four consecutive entries already listed, quoted:
SMILES,Potency,"activity change, negative = inhibition"
COc1cccc(/C=C/C(=O)c2ccc3c(c2)OCCO3)c1OC,"inconclusive: 35.5 µM [inhibitor, single point]",
CCC1(c2ccccc2)C(=O)NCNC1=O,inactive,
COc1ccc(C(C)=O)c(Oc2nc(CN3CCOCC3)nc3scc(-c4cccs4)c23)c1,,inactive: -7.73%
Cc1ccc(NC(=O)C2(c3ccccc3)CCCC2)nc1,,inactive: 5.1%
